At least one structure is not confirmed: it was looked up by name or label, or the drawing left a doubt.
Biological target: ROCK2 (Homo sapiens (Human), UniProt O75116)
Assay: ROCK2 inhibition assay (HotSpot kit, 33P-ATP)
Assay type: biochemical
Settings: compared with Fasudil, head-to-head

Sequences of proteins named here, by UniProt entry; tags and fusion partners are left off. A change or cut given only in a name is not applied to a line headed by its entry.
UniProt O75116: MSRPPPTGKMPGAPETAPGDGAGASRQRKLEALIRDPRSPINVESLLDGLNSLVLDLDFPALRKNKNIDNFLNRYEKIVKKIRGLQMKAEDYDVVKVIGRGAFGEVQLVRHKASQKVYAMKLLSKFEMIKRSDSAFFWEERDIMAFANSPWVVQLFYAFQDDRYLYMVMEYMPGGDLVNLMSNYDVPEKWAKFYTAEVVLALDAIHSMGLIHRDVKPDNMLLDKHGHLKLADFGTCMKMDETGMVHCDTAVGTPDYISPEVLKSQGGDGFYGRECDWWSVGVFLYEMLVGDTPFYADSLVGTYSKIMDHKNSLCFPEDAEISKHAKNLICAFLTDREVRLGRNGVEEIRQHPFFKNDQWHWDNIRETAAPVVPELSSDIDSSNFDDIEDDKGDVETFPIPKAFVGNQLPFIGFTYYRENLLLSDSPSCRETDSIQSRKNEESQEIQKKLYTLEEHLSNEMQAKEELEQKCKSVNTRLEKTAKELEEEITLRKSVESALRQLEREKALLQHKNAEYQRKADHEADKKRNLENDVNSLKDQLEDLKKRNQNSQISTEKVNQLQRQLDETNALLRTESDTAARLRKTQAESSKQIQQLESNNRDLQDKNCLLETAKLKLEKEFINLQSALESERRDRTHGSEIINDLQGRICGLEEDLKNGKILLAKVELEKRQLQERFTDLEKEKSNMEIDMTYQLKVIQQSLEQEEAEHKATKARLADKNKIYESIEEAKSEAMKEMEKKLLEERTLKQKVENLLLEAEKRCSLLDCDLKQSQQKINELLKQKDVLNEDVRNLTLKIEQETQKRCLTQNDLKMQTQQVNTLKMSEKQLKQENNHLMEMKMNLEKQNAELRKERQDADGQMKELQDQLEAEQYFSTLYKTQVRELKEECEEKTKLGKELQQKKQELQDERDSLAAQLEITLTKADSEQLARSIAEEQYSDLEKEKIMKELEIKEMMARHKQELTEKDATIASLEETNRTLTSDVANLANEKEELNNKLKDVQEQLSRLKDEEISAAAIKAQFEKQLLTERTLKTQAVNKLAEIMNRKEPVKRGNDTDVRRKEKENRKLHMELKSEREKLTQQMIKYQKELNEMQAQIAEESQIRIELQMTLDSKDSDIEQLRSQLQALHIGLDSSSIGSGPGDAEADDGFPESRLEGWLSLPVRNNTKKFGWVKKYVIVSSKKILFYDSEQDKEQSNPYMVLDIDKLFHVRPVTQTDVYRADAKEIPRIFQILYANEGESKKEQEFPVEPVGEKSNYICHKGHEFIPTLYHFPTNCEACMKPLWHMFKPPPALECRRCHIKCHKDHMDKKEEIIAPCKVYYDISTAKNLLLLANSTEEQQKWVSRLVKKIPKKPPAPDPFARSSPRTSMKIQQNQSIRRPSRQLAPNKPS

`Cn1c(C(=O)NCc2ccccc2F)cc2ccc(-c3cn[nH]c3)nc21` [Compound 1, N-(2-fluorobenzyl)-1-methyl-6-(1H-pyrazol-4-yl)-1H-pyrrolo[2,3-b]pyridine-2-carboxamide] was tested, and the “concentration required to inhibit half of ROCK2's activity, fold lower than Fasudil” value was “more than 50 fold”.

Source: patent US20240246972A1, “AZAINDOLE ROCK INHIBITORS” (priority 2022, published 2024)
